Data reported in patent US20230173113A1 (Technische Universität München, priority 2020, published 2023).

Experiment: general procedure: Fmoc solid-phase peptide synthesis; CTC-resin (0.9 mmol/g)
Conditions: late stage modification step

Substance	step yield [%]	step yield (In relation to the crude product) [%]
Cyclo(YRGDLAYp(NMe)K(pentynoic acid))	57	–
Cyclo(YRGDLAYp(NMe)K)	–	10.2
